Experimental data as given in patent US20190271710A1.
Results are given in words; binding and its absence hold for the method and conditions named. For some of these results: Binding calls can cover weak binding; strength is not graded here.

How the values were obtained:
[1] = biological target: tau in Common Marmoset CSF (Common Marmoset (Callithrix jacchus)); experiment: Simoa sandwich assays on Common Marmoset CSF at various dilutions
[2] = biological target: tau in Cynomolgus Macaque CSF (Cynomolgus Macaque (Macaca fascicularis)); experiment: Simoa sandwich assays on Cynomolgus Macaque CSF at various dilutions

binding [1] | binding [2] | Binder
binds | no binding | pT3 mouse monoclonal antibody (antibody, V domains shown) VH: EVKLVESGGDLVKPGGSLKLSCAASGFTFSSYAMSWVRQNPEKRLEWVASISKGGNTYYPNSVKGRFTISRDNARNILYLQMSSLRSEDTALYYCARGWGDYGWFAYWGQVTLVTVSA VL: DIKMTQSPSSMYASLGERVTITCKASQDINRYLNWFQQKPGKSPKTLIYRANRLLDGVPSRFSGSGSGQDYSLTISSLDYEDMGIYYCLQYDEFPLTFGDGTKLELK
no binding | – | hT43 mAb (antibody, V domains shown) VH: EVKLVESGGDLVKPGGSLKLSCAASGFTFRSYGMSWVRQTPDKRLEWVTTINSDGSYTYYPDSVKGRFTISRDNAKNTLYLQMSSLKSEDTAMYYCAVSWDGAMDYWGQGTSVTVSS VL: DVLVTQTPLSLPVSLGDQASISCRSSQSILHSNGNTYFEWYLQRPGQSPKLLIYKVSNRFSGVPDRFSGSGSGTDFTLKISRVEAEDLGVYYCFQGSLVPWTFGGGTKLEIK
binds | – | pT82 mAb (antibody, V domains shown) VH: EVKLEESGGGLVQPGGSMKLSCVASGFTFSNYWMNWIRQSPEKGLEWVAQIRLQSDNYATRYAESVKGRFTISRDESKTSVYLQMNNLRTEDTGIYYCTGGTTYWGQGTLVTVSA VL: DIVMTQSQKFMSTSVGDRVSITCKASQNVGTAVAWYQQKPGQSPKLLIYSASIRYTGVPDRFTGSGSGTDFTLTINYMQSEDLADYFCQQFSSYPYTFGGGTKLEIK
